One substance from paper PMC4534796 can be followed below.

Sequences of proteins named here, by UniProt entry; tags and fusion partners are left off. A change or cut given only in a name is not applied to a line headed by its entry.
UniProt Q99558, whole entry: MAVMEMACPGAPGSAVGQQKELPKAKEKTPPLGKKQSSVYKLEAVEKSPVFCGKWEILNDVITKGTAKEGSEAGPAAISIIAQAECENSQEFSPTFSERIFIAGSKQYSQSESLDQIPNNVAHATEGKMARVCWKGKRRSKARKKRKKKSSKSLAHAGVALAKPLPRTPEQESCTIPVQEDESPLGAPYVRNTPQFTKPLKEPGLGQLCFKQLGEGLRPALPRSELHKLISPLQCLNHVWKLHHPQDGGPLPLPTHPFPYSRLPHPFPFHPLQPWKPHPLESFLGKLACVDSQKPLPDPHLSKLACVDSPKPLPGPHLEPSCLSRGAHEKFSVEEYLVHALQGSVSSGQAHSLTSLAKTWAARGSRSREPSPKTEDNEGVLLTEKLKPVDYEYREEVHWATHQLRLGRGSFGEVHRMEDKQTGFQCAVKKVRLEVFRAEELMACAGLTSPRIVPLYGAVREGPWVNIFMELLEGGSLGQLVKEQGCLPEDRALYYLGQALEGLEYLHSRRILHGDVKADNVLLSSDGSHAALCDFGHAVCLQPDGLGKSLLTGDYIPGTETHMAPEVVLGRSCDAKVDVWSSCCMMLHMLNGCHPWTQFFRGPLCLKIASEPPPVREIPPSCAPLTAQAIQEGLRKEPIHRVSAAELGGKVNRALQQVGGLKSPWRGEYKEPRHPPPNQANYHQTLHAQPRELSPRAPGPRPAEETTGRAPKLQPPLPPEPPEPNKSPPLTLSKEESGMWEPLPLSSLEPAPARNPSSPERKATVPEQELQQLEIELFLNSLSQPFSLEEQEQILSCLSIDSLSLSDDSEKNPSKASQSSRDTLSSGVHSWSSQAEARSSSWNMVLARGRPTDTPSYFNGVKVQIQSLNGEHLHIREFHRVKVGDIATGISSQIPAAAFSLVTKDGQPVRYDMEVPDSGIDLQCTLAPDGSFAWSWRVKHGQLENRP

No constants are given. Whether binding was seen depends on the method and setting. In cells and extracts the contact can be indirect. Some binding calls cover weakened binding; strength is not graded here. Sequences can lack the tags named with a protein.

The target in the experiment is T1, Flag-tagged NDRG2 (N-myc downstream-regulated gene 2), transfected in 293T cells (UniProt Q9UN36).
T1 sequence: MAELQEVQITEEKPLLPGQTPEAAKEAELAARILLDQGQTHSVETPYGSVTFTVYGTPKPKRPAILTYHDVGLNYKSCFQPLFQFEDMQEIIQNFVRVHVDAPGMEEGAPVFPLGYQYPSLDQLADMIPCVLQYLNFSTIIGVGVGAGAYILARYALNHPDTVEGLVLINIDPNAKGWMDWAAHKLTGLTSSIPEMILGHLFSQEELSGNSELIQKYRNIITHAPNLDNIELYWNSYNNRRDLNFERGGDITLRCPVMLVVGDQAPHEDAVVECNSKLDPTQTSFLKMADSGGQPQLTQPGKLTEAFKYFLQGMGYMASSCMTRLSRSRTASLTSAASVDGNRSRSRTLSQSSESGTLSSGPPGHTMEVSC
The experiment is described as follows: co-IP; lysates of 293T cells co-transfected with HA-NIK (WT or mutant) and Flag-NDRG2; immunoprecipitated with anti-Flag and with anti-HA antibodies, Western blot.

“Hemagglutinin (HA)-tagged NIK, wild type (from UniProt Q99558 1-947)”: the binding entry is on record as “binds”.
